# PubChem BioAssay AID2417 (National Center for Advancing Translational Sciences (NCATS), 2010)
# Out of some 140,000 compounds screened, about 4,300 (3.1%) were called active. The shares of active, inactive and inconclusive entries below differ from those in the screen.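 Rule for the calls: active = readout at or below -70, meaning at least 70% loss of cells showing the perinucleolar compartment, a nuclear body marking cancer cells; inconclusive = readout between -30 and a set limit; inactive = the rest.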
# Experiment: High Content Assay for Compounds that inhibit the Assembly of the Perinucleolar Compartment;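 note: plate controls were DMSO wells for no effect and camptothecin positive control wells for full effect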
# Conditions: PC3M PTB-GFP, PNC prevalence imaging, 16 h; at 10 µM; hits give low values
# How it was run: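 PC3M cells stably expressing PTB-GFP, 750–1000 cells/well, treated 16 h at 37 °C with compound (23 nl of library stock), in duplicate. After paraformaldehyde fixation and Hoechst stain, imaged at 20x; PNC prevalence scored by image analysis.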
row,Structure (SMILES),"activity change (PNC), negative = inhibition"
1,Cc1nc(SCC(=O)NCc2ccco2)nc(C)c1C,inconclusive: -39.4%
2,Cc1cccc(NC(=S)NC(=O)c2ccco2)n1,inactive: 168%
3,CCOC(=O)c1cccc(NC(=O)CSc2nnnn2C)c1,inconclusive: -30.8%
4,COc1ccc2c(c1)c1ncn(CCN3CCCC3)c(=O)c1n2C,inconclusive: -39.1%
5,Cc1cc(C)c(N=C2CCCN2Cc2ccccc2)c(C#N)c1,inactive: 36.9%
6,CCC(Sc1nc(N)c(NC(=O)c2ccc(OC)c(OC)c2)c(=O)[nH]1)C(=O)OC (stereo not given),inconclusive: -40.5%
7,COc1ccc(/C=C/C(=O)Nc2sc3c(c2C(=O)NCc2cccnc2)CCCC3)cc1,inactive: 44.5%
8,COCC(=O)Nc1ccc(Br)cc1,inconclusive: -36.1%
9,Cc1cc(N2CCN(Cc3ccccc3)CC2)n2nc(C)c(-c3ccccc3)c2n1,inconclusive: -36.9%
10,COc1ccc(N=CC2=C(O)c3ccccc3C2=O)c(OC)c1,inconclusive: -50.8%
11,O=C(O)C(=O)Cc1c[nH]c2ccccc12,inconclusive: -36.4%
12,COc1ccc(C(=O)CN2C(=O)C(C)(C)Oc3ccc(C(=O)N4CCCCCC4)cc32)cc1,inactive: -25.1%
13,CC(=O)c1cnc(Nc2nc(C)c3ccccc3n2)nc1C,inconclusive: -68.5%
14,Cc1ccccc1NC(=O)c1ccc(CN(c2ccccc2)S(=O)(=O)c2ccccc2)cc1,active: -134%
15,COc1ccc(CN(Cc2cc3cc4c(cc3[nH]c2=O)OCO4)C(=O)NC2CCCCC2)cc1,active: -97%
16,Cc1onc(-c2ccccc2Cl)c1C(=O)Nc1cccc2cccnc12,inconclusive: -55.7%
17,COc1cccc(C2C(C#N)=C(N)Oc3cc(C)n(Cc4ccccn4)c(=O)c32)c1OC (stereo not given),inconclusive: -39.9%
18,O=C(CSc1ncnc2sc3c(c12)CCCC3)c1ccccc1,inconclusive: -41.1%
19,O=C(NCc1ccco1)c1ccc2c(c1)C(=O)c1ccccc1-2,inconclusive: -35.9%
20,COc1ccccc1CNC(=O)COC(=O)Cc1ccc(Cl)cc1,inconclusive: -44.9%
21,O=C(CCl)N1c2ccccc2OCC1c1ccccc1 (stereo not given),inconclusive: -48.5%
22,COc1ccc(S(=O)(=O)N2CCN(c3cc(-c4ccccc4)nc4ncnn34)CC2)cc1,inactive: -10.5%
23,CCOC(=O)c1c(NC(=O)Cc2cccs2)sc2c1CCCC2,inactive: 9.35%

row,Structure (SMILES),"activity change (PNC), negative = inhibition"
1,Cc1ccc(S(=O)(=O)/N=S(/C)c2ccccc2)cc1 (stereo not given),inconclusive: -40.1%
2,COC(=O)c1cc(S(=O)(=O)NC2CCN(Cc3ccccc3)CC2)cn1C,inconclusive: -45.6%
3,COc1ccc(CNC(=O)CN2C(=O)C(C)N(c3ccc(C)cc3)C2=O)cc1 (stereo not given),inconclusive: -31.1%
4,CCOC(=O)C(NC(=O)CCl)(Nc1sc(C)c(CC)c1C#N)C(F)(F)F (stereo not given),inconclusive: -32.2%
5,Cc1ccccc1OCc1nc2ccccc2c(=O)n1/N=C/c1ccco1,inconclusive: -50.5%
6,Cc1cccc(N2CCN(c3ccc(NC(=O)/C=C(/C(=O)O)c4ccccc4)cc3)CC2)c1,inactive: 5.93%
7,COc1ccc2nc(C)c(C(=O)NN)cc2c1,inconclusive: -35.5%
8,COc1ccc(C(=O)OCCCN(C)C)cc1OC,inconclusive: -78%
9,O=C(c1cccs1)N1CCN(S(=O)(=O)N2CCCCC2)CC1,inconclusive: -58.7%
10,CCC(C)(C)NC(=O)c1ccc2c(c1)S(=O)(=O)c1ccccc1C2=O,inconclusive: -44.6%
11,C=CCOc1ccccc1CNc1ccccc1C,inconclusive: -46.7%
12,CC(C)C(NC(=S)Nc1ccccc1)C(=O)O (stereo not given),inconclusive: -43.1%
13,CCS(=O)(=O)c1nnnn1-c1ccccc1S(C)(=O)=O,active: -117%
14,CCCNC(=O)c1c(N)n(-c2ccc3c(c2)OCO3)c2nc3ccccc3nc12,inactive: -20.7%
15,CCCOc1ccc(/C=N/NC(=O)CSCc2ccc([N+](=O)[O-])cc2)cc1OCC,inactive: -11.4%
16,O=C(NCC1CCCO1)C1CCN(S(=O)(=O)Cc2ccccc2)CC1 (stereo not given),active: -108%
17,CC(c1ccccc1)n1cc(C(=O)NCc2ccccn2)nn1 (stereo not given),inactive: -5.22%
18,CNC(=O)CCn1nc(-c2ccccc2)c2ccccc2c1=O,inconclusive: -59.8%
19,CCCCCCC1CC(CC(=O)Nc2ccc([N+](=O)[O-])cc2)C(=O)O1 (stereo not given),active: -104%
20,CCn1nc(C(=O)Nc2nc3ccccc3[nH]2)c2ccccc2c1=O,active: -89%
21,C/C(=N\NC(=O)c1ccccc1O)c1ccc(Br)s1,inactive: -26.3%
22,O=C(Nc1ccc2oc(-c3ccccc3)nc2c1)c1cccs1,inconclusive: -44%
23,O=C(COc1ccccc1)NCCSCc1ccco1,inconclusive: -30.1%

row,Structure (SMILES),"activity change (PNC), negative = inhibition"
1,Cc1ccc(S(=O)(=O)NCCNC(=O)c2cc(OCC(F)(F)F)ccc2OCC(F)(F)F)cc1,inconclusive: -55.3%
2,CN(c1ccc(C(=O)Nc2nccs2)cc1)S(=O)(=O)c1ccccc1,inactive: -17.3%
3,Cc1ccc2[nH]c3c(c2c1)CN(C(=O)CN1CCN(Cc2ccc4c(c2)OCO4)CC1)CC3,inactive: -0.583%
4,CCSC1=NC2(CCCCC2)Nc2sc3c(c21)CCCC3,inconclusive: -48.6%
5,CCN1CCCC1CNC(=O)Cn1cc2c(n1)CCC(C)C2 (stereo not given),inconclusive: -38.6%
6,COc1cc(/C=C\C(=O)NCc2ccc3c(c2)cc(C)n3C)cc(OC)c1OC,inconclusive: -51.1%
7,COc1ccc(-c2cn3cc(C)ccc3n2)cc1OC,inconclusive: -55%
8,COc1ccc(N2CCN(C(=O)c3ccc(C)cc3)CC2)c([N+](=O)[O-])c1,inactive: 10.3%
9,COc1ccc(C=O)cc1COc1ccc(C)cc1[N+](=O)[O-],inconclusive: -39.4%
10,C=CCOc1c(Cl)cc(CNc2ccc(C)c(Cl)c2)cc1OC,active: -91.7%
11,O=C(CC(Sc1ccccc1)c1cccs1)c1ccco1 (stereo not given),inconclusive: -44.2%
12,CC(C)(C)C(=O)Nc1ccccc1C(=O)N1CCCC1,inconclusive: -37.1%
13,CCCCNC(=O)COc1ccccc1C(=O)c1cc(C#N)c(=O)n(CCOC)c1,inactive: -9.55%
14,CCC(OC(=O)c1cc2sccc2n1C)C(=O)NCC1CCCO1 (stereo not given),inconclusive: -32.4%
15,Cc1noc(C(=O)Nc2sc3c(c2C#N)CCC3)c1Cl,inactive: -20.5%
16,Cc1cc(C)c2nc(SC(C)C(=O)NCC(=O)Nc3ccc(F)c(F)c3F)cc(C)c2c1 (stereo not given),inconclusive: -39%
17,NS(=O)(=O)c1ccc(NC(=S)NC(=O)c2ccco2)cc1,inactive: 66.5%
18,CCOc1ccccc1N1CCN(c2nc3ccccc3nc2C(C#N)C(=O)OC(C)C)CC1 (stereo not given),inconclusive: -41.2%
19,CCCCOC(=O)c1ccc(NC(c2ccc(C)cc2)P(=O)(OC)OC)cc1 (stereo not given),inconclusive: -32.6%
20,Cc1ccc2[nH]c(C(=O)O)c(NC(=O)c3ccccc3[N+](=O)[O-])c2c1,inactive: 17.5%
21,CCCC(C)NNC(=O)c1cc2ccccc2[nH]1 (stereo not given),inactive: 26.7%
22,COCc1cc(=O)n2c([nH]c3ccccc32)c1C#N,inconclusive: -70.7%
23,CS(=O)(=O)c1ccc(Sc2nc3ccccc3[nH]2)c([N+](=O)[O-])c1,inconclusive: -37.9%

# Part of the list above, bar-delimited.
row | Structure (SMILES) | activity change (PNC), negative = inhibition
17 | NS(=O)(=O)c1ccc(NC(=S)NC(=O)c2ccco2)cc1 | inactive: 66.5%
18 | CCOc1ccccc1N1CCN(c2nc3ccccc3nc2C(C#N)C(=O)OC(C)C)CC1 (stereo not given) | inconclusive: -41.2%
19 | CCCCOC(=O)c1ccc(NC(c2ccc(C)cc2)P(=O)(OC)OC)cc1 (stereo not given) | inconclusive: -32.6%
20 | Cc1ccc2[nH]c(C(=O)O)c(NC(=O)c3ccccc3[N+](=O)[O-])c2c1 | inactive: 17.5%
21 | CCCC(C)NNC(=O)c1cc2ccccc2[nH]1 (stereo not given) | inactive: 26.7%

# Continued.

row,Structure (SMILES),"activity change (PNC), negative = inhibition"
1,Cc1ccccc1S(=O)(=O)c1c(C)cc(C)n(CC(C)C)c1=O,inactive: -28.8%
2,O=C(NCCOc1cccc(Oc2ccccc2)c1)c1cc(-n2cnnc2)ccc1Cl,inconclusive: -30.1%
3,COc1ccc(N2C(=O)C(Cl)=C(Nc3c(C)n(C)n(-c4ccccc4)c3=O)C2=O)cc1,inconclusive: -69.6%
4,CC1(C(=O)Nc2nnc(SCc3ccccc3)s2)Cc2ccccc2C(=O)O1 (stereo not given),inconclusive: -62.8%
5,O=C(NNC(=O)C(c1ccccc1)c1ccccc1)c1ccccn1,inactive: -29.1%
6,C=CCn1c(Cc2cccs2)nnc1SCC(=O)c1cccc(Br)c1,inactive: -0.564%
7,O=C(CSc1nc2ccccc2n1CCc1ccccc1)N1CCOCC1,inconclusive: -47.4%
8,CCN1CCN(C(=S)c2ccc(Cl)c(Cl)c2)CC1,inconclusive: -52.1%
9,CC(OC(=O)c1ccc2c(=O)n3c(nc2c1)CCCCC3)C(=O)Nc1ccc(F)cc1Cl (stereo not given),inconclusive: -34.6%
10,c1cn(CCCNc2ncnc3nc[nH]c23)cn1,active: -112%
11,CCOC(=O)c1ccc(N/C=C/C(=O)c2ccc(OC)c(OC)c2)cc1,inconclusive: -38%
12,O=C(COc1ncnc2ccccc12)N1CCN(S(=O)(=O)c2ccc(Cl)cc2)CC1,inactive: 20%
13,COc1ccccc1NS(=O)(=O)c1cc(NC(=O)CNC(=O)c2cc(C)cc(C)c2)ccc1C,inactive: -16.2%
14,COc1ccc(S(=O)(=O)NC2(C(F)(F)F)N=C(c3ccccc3)NC2=O)cc1 (stereo not given),active: -113%
15,CCOc1ccc(/C(O)=C2\C(=O)C(=O)N(CCN(C)C)C2c2cccc(OC)c2OC)cc1Cl (stereo not given),inconclusive: -34.3%
16,CC(=O)c1cc2c(cc1N/C(=N/S(=O)(=O)c1ccc(C)cc1)c1ccccc1)OCO2,inconclusive: -32.2%
17,C=C(C)Cn1c(SCC(=O)O)nc2c1c(=O)[nH]c(=O)n2C,inconclusive: -43.1%
18,O=C(OCn1nnc2ccccc2c1=O)c1ccc(S(=O)(=O)N2CCOCC2)cc1,inconclusive: -58.2%
19,COC(=O)C1=C(C)Nc2c(c(=O)n(C)c(=O)n2C)C1c1cccnc1 (stereo not given),inconclusive: -46%
20,c1ccc(-c2n[nH]c3ccccc23)cc1,inactive: 17.2%
21,COc1cccc(C(CC(=O)Nc2cccc3ccccc23)NC(=O)c2ccccc2)c1 (stereo not given),inconclusive: -31.4%
